Publication PMC5133637
These are yes or no findings as the source states them, for the method shown. Binding seen in cells or lysates may run through a third protein. A result given as binding can be weak or reduced; the word gives no strength. Where a sequence is shown, tags or fusion partners need not be part of it. Values belong to the molecule of their own block, whether it stands above or below them.

Sequences of proteins named here, by UniProt entry; tags and fusion partners are left off. A change or cut given only in a name is not applied to a line headed by its entry.
UniProt Q9QZL6: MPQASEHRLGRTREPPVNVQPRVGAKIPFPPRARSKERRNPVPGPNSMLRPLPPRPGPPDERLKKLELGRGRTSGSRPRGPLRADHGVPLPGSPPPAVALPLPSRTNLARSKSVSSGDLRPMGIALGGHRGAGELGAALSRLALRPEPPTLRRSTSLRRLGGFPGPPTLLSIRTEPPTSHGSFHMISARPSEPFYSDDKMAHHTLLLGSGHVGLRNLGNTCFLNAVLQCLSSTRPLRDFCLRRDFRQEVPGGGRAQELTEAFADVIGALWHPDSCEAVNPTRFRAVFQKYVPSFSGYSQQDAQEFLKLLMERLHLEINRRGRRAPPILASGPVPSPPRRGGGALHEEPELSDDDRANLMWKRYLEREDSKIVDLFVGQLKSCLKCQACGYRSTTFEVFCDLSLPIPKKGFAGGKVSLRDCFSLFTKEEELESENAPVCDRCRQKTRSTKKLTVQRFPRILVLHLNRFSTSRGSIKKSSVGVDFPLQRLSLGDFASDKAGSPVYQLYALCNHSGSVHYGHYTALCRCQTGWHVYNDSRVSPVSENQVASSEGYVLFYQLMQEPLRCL

Columns and labels:
Experiment in all cases: co-IP; transfected HEK293T cells; lysis in 50 mM Tris-Cl pH 7.4, 0.5% NP-40, 150 mM NaCl, 1 mM EDTA; HA-conjugated beads or M2 (anti-Flag) beads 2-3 h; western blot; in some panels cells treated with EGF with or without SCH772984, or co-expressing MEK1^CA and ERK1
[1] = target: T1, HA-Nanog (mouse) (UniProt Q80Z64)
T1 sequence: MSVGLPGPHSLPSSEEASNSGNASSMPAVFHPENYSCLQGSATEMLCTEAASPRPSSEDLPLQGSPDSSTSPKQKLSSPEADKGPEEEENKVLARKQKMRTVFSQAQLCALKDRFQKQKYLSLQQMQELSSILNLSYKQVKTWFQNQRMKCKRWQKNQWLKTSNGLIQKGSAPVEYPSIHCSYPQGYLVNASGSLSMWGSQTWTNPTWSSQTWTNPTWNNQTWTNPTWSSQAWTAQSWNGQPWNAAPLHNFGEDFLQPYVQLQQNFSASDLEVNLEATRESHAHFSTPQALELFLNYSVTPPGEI

[2] = target: Flag-USP21 S539A (mouse) (UniProt Q9QZL6)
[3] = target: Flag-USP21-SV (mouse)
[4] = target: USP21 C-terminal UCH (catalytic domain) (mouse)
[5] = target: USP21 S335D (mouse) (UniProt Q9QZL6)
[6] = target: USP21 S93D (mouse) (UniProt Q9QZL6)

binding [1]: binds
Molecule: Flag-USP21-SV (mouse) (enzyme)

binding [2]: binds
binding [3]: binds
binding [4]: binds
binding [5]: binds
binding [6]: binds
B1: HA-Nanog (protein, UniProt Q80Z64 1-305)
chain: T1 sequence
